# Some of the results follow.
# B1: CcfD (Bacteroides vulgatus), A6KYX8 (protein)
# chain: MKYKNYFKSIIYLALGAFTLGSCEDFLDRQEDEKLTFDKIWESRNTTQQYWLNAMSFLPNENGSLQGDTEPYLGASDECTIAYDRQYRWINFGTWNPSQVPYYKMDHYYKGIRECNIFLQNVYKCSDPLVTKDQLDEWYWQTRFARAYYYFLMMRDYGPVFLLGDDLLDFTASTEELYRPRNTWDQCVNYVVSEMTQCAESGVVLQQSDLPAAKWGLATVGTCHAVISRLLLYSARPLFNGNKLYSTVKNPDAPDFPELSGVKLFPELDNTKWQKAAEAAKKLIDNPCYELYRAGNDNPYEDYYGVTHETWNKELIWTDRYNGLFSWGVGTVPTGVAGTAYGAVGPTQALVDAYAMNTGWYPITGYEADGTPIVEPLSGYELASELEKSSWIYPSGGWSNKADFEIEAPNMYKDREPRFYVTVFFGGNQWLHGNSATSISFAKGGNGNKSHDYPKSGYLCNRFYDHKLNSSEGQWGNITFPVFRLGEIYLNFIEAVLECKKNGVALDPSYEALAMEKWADLRKRAGLDPITSIYGQVSTEELIQLCRKERQIELAFERHRYFDTRTWMIATQTDNGKMYGMNTSCPLDAGMKGTETPDGFWERTAFETRVFQNKHYLYPFSQRELDRNKLLTQNYGW
# Legend:
# Assay in all cases: glycan array binding signal (z-score within array); higher = stronger binding
# Conditions in all cases: glycan notation: IUPAC condensed, linker removed
# [1] = biological target: Neu5Ac(a2-3)Gal(b1-4)GlcNAc(b1-3)[Neu5Ac(a2-3)Gal(b1-4)GlcNAc(b1-6)]GalNAc
# Summary of the method: (§1)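 The binding signal is a Z-score computed within each array and averaged over linkers. Arrays of the same protein sequence at different concentrations or buffers were also averaged together. Data originate from 3228 arrays in the Consortium for Functional Glycomics database, kept only where the protein sequence was available.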
# [2] = biological target: Neu5Ac(a2-3)Gal(b1-4)GlcNAc(b1-6)GalNAc
# Summary of the method: as §1
# [3] = biological target: Neu5Ac(a2-3)Gal(b1-4)GlcNAc(b1-6)[Gal(b1-3)]GalNAc
# Summary of the method: as §1
# [4] = biological target: Neu5Ac(a2-3)Gal(b1-4)GlcNAc(b1-6)[Neu5Ac(a2-3)Gal(b1-3)]GalNAc
# Summary of the method: as §1
# [5] = biological target: Neu5Ac(a2-3)Gal(b1-4)GlcNAc6S
# Summary of the method: as §1
# [6] = biological target: Neu5Ac(a2-3)Gal(b1-4)[Fuc(a1-3)]GlcNAc
# Summary of the method: as §1
# [7] = biological target: Neu5Ac(a2-3)Gal(b1-4)[Fuc(a1-3)]GlcNAc(b1-2)Man
# Summary of the method: as §1
# [8] = biological target: Neu5Ac(a2-3)Gal(b1-4)[Fuc(a1-3)]GlcNAc(b1-3)Gal
# Summary of the method: as §1
# [9] = biological target: Neu5Ac(a2-3)Gal(b1-4)[Fuc(a1-3)]GlcNAc(b1-3)Gal(b1-4)GlcNAc
# Summary of the method: as §1
# [10] = biological target: Neu5Ac(a2-3)Gal(b1-4)[Fuc(a1-3)]GlcNAc(b1-3)Gal(b1-4)[Fuc(a1-3)]GlcNAc(b1-3)Gal(b1-4)[Fuc(a1-3)]GlcNAc
# Summary of the method: as §1
# [11] = biological target: Neu5Ac(a2-3)Gal(b1-4)[Fuc(a1-3)]GlcNAc(b1-3)GalNAc
# Summary of the method: as §1
# [12] = biological target: Neu5Ac(a2-3)Gal(b1-4)[Fuc(a1-3)]GlcNAc(b1-6)[Gal(b1-3)]GalNAc
# Summary of the method: as §1
# [13] = biological target: Neu5Ac(a2-3)Gal(b1-4)[Fuc(a1-3)]GlcNAc(b1-6)[Neu5Ac(a2-3)Gal(b1-3)]GalNAc
# Summary of the method: as §1
# [14] = biological target: Neu5Ac(a2-3)Gal(b1-4)[Fuc(a1-3)]GlcNAc6S
# Summary of the method: as §1
# [15] = biological target: Neu5Ac(a2-3)Gal6S(b1-4)GlcNAc
# Summary of the method: as §1
# [16] = biological target: Neu5Ac(a2-3)Gal6S(b1-4)[Fuc(a1-3)]GlcNAc
# Summary of the method: as §1
# Neu5Ac(a2-3)GalNAc = biological target: Neu5Ac(a2-3)GalNAc
# Summary of the method: as §1
# [17] = biological target: Neu5Ac(a2-3)GalNAc(b1-4)GlcNAc
# Summary of the method: as §1
# [18] = biological target: Neu5Ac(a2-3)[GalNAc(b1-4)]Gal(b1-4)Glc
# Summary of the method: as §1
# [19] = biological target: Neu5Ac(a2-3)[GalNAc(b1-4)]Gal(b1-4)GlcNAc
# Summary of the method: as §1
# [20] = biological target: Neu5Ac(a2-3)[GalNAc(b1-4)]Gal(b1-4)GlcNAc(b1-3)GalNAc
# Summary of the method: as §1
# [21] = biological target: Neu5Ac(a2-3)[Neu5Ac(a2-6)]GalNAc
# Summary of the method: as §1
# Neu5Ac(a2-6)Gal = biological target: Neu5Ac(a2-6)Gal
# Summary of the method: as §1
# [22] = biological target: Neu5Ac(a2-6)Gal(b1-3)GlcNAc(b1-3)[Gal(b1-4)GlcNAc(b1-6)]Gal(b1-4)Glc
# Summary of the method: as §1
# Neu5Ac(a2-6)Gal(b1-4)Glc = biological target: Neu5Ac(a2-6)Gal(b1-4)Glc
# Summary of the method: as §1
# [23] = biological target: Neu5Ac(a2-6)Gal(b1-4)GlcNAc
# Summary of the method: as §1
# [24] = biological target: Neu5Ac(a2-6)Gal(b1-4)GlcNAc(b1-2)Man
# Summary of the method: as §1
# [25] = biological target: Neu5Ac(a2-6)Gal(b1-4)GlcNAc(b1-2)Man(a1-3)Man(b1-4)GlcNAc(b1-4)GlcNAc
# Summary of the method: as §1
# [26] = biological target: Neu5Ac(a2-6)Gal(b1-4)GlcNAc(b1-2)Man(a1-3)[Gal(b1-4)GlcNAc(b1-2)Man(a1-6)]Man(b1-4)GlcNAc(b1-4)GlcNAc
# Summary of the method: as §1
# [27] = biological target: Neu5Ac(a2-6)Gal(b1-4)GlcNAc(b1-2)Man(a1-3)[GlcNAc(b1-4)][Neu5Ac(a2-6)Gal(b1-4)GlcNAc(b1-2)Man(a1-6)]Man(b1-4)GlcNAc(b1-4)GlcNAc
# Summary of the method: as §1
binder,measurement,setting,value
B1,glycan array binding signal (z-score),[1],0.689
same,glycan array binding signal (z-score),[2],0.897
same,glycan array binding signal (z-score),[3],1.43
same,glycan array binding signal (z-score),[4],5
same,glycan array binding signal (z-score),[5],-0.495
same,glycan array binding signal (z-score),[6],-0.083
same,glycan array binding signal (z-score),[7],-0.739
same,glycan array binding signal (z-score),[8],-0.851
same,glycan array binding signal (z-score),[9],-0.637
same,glycan array binding signal (z-score),[10],-1.21
same,glycan array binding signal (z-score),[11],-0.078
same,glycan array binding signal (z-score),[12],-0.312
same,glycan array binding signal (z-score),[13],-0.053
same,glycan array binding signal (z-score),[14],0.166
same,glycan array binding signal (z-score),[15],0.226
same,glycan array binding signal (z-score),[16],-0.942
same,glycan array binding signal (z-score),Neu5Ac(a2-3)GalNAc,-0.317
same,glycan array binding signal (z-score),[17],-0.307
same,glycan array binding signal (z-score),[18],0.592
same,glycan array binding signal (z-score),[19],1.18
same,glycan array binding signal (z-score),[20],1.96
same,glycan array binding signal (z-score),[21],-0.571
same,glycan array binding signal (z-score),Neu5Ac(a2-6)Gal,-0.683
same,glycan array binding signal (z-score),[22],-0.307
same,glycan array binding signal (z-score),Neu5Ac(a2-6)Gal(b1-4)Glc,-0.592
same,glycan array binding signal (z-score),[23],-0.287
same,glycan array binding signal (z-score),[24],-0.327
same,glycan array binding signal (z-score),[25],2.02
same,glycan array binding signal (z-score),[26],-0.708
same,glycan array binding signal (z-score),[27],-0.114

# Rewritten tab-delimited: part of the list above
binder	measurement	setting	value
B1	glycan array binding signal (z-score)	[2]	0.897
same	glycan array binding signal (z-score)	[10]	-1.21
same	glycan array binding signal (z-score)	[12]	-0.312
same	glycan array binding signal (z-score)	[15]	0.226
same	glycan array binding signal (z-score)	Neu5Ac(a2-6)Gal	-0.683
